{"source": "PubChem BioAssay AID1259292 – Sanger Institute | 2017", "assay": "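Kinase genes whose knock-down synergises with trametinib, cetuximab or BYL719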 (follow-up of hits)", "cells": "human colorectal cancer RCM1 cells", "reagents": "single siRNA against human genes", "challenge": "anchor drugs BYL719 at 1 µM, cetuximab at 5 µg/ml or trametinib at 10 nM, or DMSO vehicle; exposure time not given", "measured": "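Replicate-averaged viability as a fraction of non-targeting pool 2 wells, under DMSO, BYL719 1 µM, cetuximab 5 µg/ml or trametinib 10 nM (time unstated), plus a synergy score for each drug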", "scale": "synergy score with trametinib and synergy score with cetuximab and synergy score with BYL719: higher = stronger combined killing beyond expected (synthetic lethal)", "rule for the call": "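a gene counts as synergistic when its synergy score is over 0.10 with at least one of the three drugs; otherwise no synergy with any drug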", "calls": "active = synergy with at least one anchor drug; inactive = no synergy with any anchor drug", "note": "Here is one part, drawn at random, of 160 deposited reagents. 64 of them (40%) were called active. 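Four separate siRNAs per gene; a call can rest on any single drug, so look at each drug's score.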 The numbers tell different reagents against one gene apart. Further read-outs or replicates are left out here. The record does not give: the amount of reagent, the time to read-out."}
The opening 2 entries, ahead of the listing:
{"gene knocked down":"IRAK3","reagent no.":1,"synergy score with trametinib":-0.0136,"synergy score with cetuximab":0.013,"synergy score with BYL719":-0.102,"outcome":"inactive"}
{"gene knocked down":"IRAK3","reagent no.":2,"synergy score with trametinib":0.172,"synergy score with cetuximab":0.00542,"synergy score with BYL719":-0.0274,"outcome":"active"}

Results, from the start:
{"gene knocked down":"IRAK3","reagent no.":1,"synergy score with trametinib":-0.0136,"synergy score with cetuximab":0.013,"synergy score with BYL719":-0.102,"outcome":"inactive"}
{"gene knocked down":"IRAK3","reagent no.":2,"synergy score with trametinib":0.172,"synergy score with cetuximab":0.00542,"synergy score with BYL719":-0.0274,"outcome":"active"}
{"gene knocked down":"IRAK3","reagent no.":3,"synergy score with trametinib":0.0604,"synergy score with cetuximab":-0.0026,"synergy score with BYL719":-0.00981,"outcome":"inactive"}
{"gene knocked down":"IRAK3","reagent no.":4,"synergy score with trametinib":-0.0148,"synergy score with cetuximab":-0.0796,"synergy score with BYL719":-0.228,"outcome":"inactive"}
{"gene knocked down":"SYK","reagent no.":1,"synergy score with trametinib":0.126,"synergy score with cetuximab":-0.0626,"synergy score with BYL719":-0.00785,"outcome":"active"}
{"gene knocked down":"SYK","reagent no.":2,"synergy score with trametinib":0.252,"synergy score with cetuximab":0.101,"synergy score with BYL719":-0.192,"outcome":"active"}
{"gene knocked down":"SYK","reagent no.":3,"synergy score with trametinib":0.00984,"synergy score with cetuximab":-0.0461,"synergy score with BYL719":-0.0278,"outcome":"inactive"}
{"gene knocked down":"SYK","reagent no.":4,"synergy score with trametinib":-0.169,"synergy score with cetuximab":-0.0686,"synergy score with BYL719":-0.162,"outcome":"inactive"}
{"gene knocked down":"CDK6","reagent no.":1,"synergy score with trametinib":0.0408,"synergy score with cetuximab":0.0392,"synergy score with BYL719":-0.162,"outcome":"inactive"}
{"gene knocked down":"CDK6","reagent no.":2,"synergy score with trametinib":0.226,"synergy score with cetuximab":0.173,"synergy score with BYL719":0.0966,"outcome":"active"}
{"gene knocked down":"CDK6","reagent no.":3,"synergy score with trametinib":0.0457,"synergy score with cetuximab":-0.0686,"synergy score with BYL719":-0.162,"outcome":"inactive"}
{"gene knocked down":"CDK6","reagent no.":4,"synergy score with trametinib":0.0908,"synergy score with cetuximab":0.216,"synergy score with BYL719":-0.0638,"outcome":"active"}
